These results are taken from PMC7212925.

Chains of the proteins cited; added tags and fusions are not shown. Residues count along the entry.
UniProt P30530, residues 26-894: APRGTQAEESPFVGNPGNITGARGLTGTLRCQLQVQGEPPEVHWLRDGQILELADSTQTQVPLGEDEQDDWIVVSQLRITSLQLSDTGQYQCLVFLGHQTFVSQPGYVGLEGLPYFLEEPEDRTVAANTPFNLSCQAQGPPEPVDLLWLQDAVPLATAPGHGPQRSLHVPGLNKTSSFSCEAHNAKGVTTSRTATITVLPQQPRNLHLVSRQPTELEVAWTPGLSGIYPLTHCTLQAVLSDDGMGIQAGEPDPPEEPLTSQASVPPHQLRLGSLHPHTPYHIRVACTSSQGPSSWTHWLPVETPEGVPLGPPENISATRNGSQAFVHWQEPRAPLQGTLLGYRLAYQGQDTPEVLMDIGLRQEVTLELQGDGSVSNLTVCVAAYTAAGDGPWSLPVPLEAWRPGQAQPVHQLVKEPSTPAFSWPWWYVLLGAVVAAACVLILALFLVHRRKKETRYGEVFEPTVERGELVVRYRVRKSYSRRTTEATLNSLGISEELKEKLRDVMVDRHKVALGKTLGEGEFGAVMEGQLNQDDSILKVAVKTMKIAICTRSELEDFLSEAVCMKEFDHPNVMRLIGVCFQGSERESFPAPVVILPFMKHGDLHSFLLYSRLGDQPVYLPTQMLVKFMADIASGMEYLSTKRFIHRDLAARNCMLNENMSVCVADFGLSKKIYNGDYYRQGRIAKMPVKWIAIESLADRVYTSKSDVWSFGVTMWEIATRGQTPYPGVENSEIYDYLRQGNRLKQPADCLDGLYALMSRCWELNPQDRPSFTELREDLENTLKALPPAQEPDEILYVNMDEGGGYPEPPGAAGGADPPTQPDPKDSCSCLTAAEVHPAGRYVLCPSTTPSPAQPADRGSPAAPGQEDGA

Test [1] addresses AXL C-terminally fused to LgBiT or SmBiT (NanoBiT construct) (human) (UniProt P30530). As to the kind of experiment: split reporter; NanoBiT complementation in live U87 cells, 48 h after transfection; partners C-terminally fused to LgBiT or SmBiT; no ligand; area under the curve of luminescence.
For test [2] the target is unchanged. As to the kind of experiment: split reporter; NanoBiT competition in live U87 cells: LgBiT- and SmBiT-tagged AXL or EGFR with untagged competitors co-transfected from pIRES plasmids in excess (2X to 18X); ligand-induced dimerization signal read.
The target in test [3] is AXL, endogenous in U87-EGFRvIII-derived cells (human (endogenous in U87-EGFRvIII)) (UniProt P30530). As to the kind of experiment: proximity ligation; in situ PLA (DuoLink) with primary antibodies to AXL and LRIG1 on U87-EGFRvIII cells and on cells expressing sLRIG1; interaction foci counted.

These are yes or no findings as the source states them, for the method shown. In cells and extracts the contact can be indirect. Some entries that bind do so weakly or less than the wild type. For some of these results: Tags and fused reporters may be left off the sequences shown.

B1: LRIG1 C-terminally fused to LgBiT or SmBiT (NanoBiT construct) (protein, UniProt Q96JA1 35-1093)
chain: AGPRAPCAAACTCAGDSLDCGGRGLAALPGDLPSWTRSLNLSYNKLSEIDPAGFEDLPNLQEVYLNNNELTAVPSLGAASSHVVSLFLQHNKIRSVEGSQLKAYLSLEVLDLSLNNITEVRNTCFPHGPPIKELNLAGNRIGTLELGAFDGLSRSLLTLRLSKNRITQLPVRAFKLPRLTQLDLNRNRIRLIEGLTFQGLNSLEVLKLQRNNISKLTDGAFWGLSKMHVLHLEYNSLVEVNSGSLYGLTALHQLHLSNNSIARIHRKGWSFCQKLHELVLSFNNLTRLDEESLAELSSLSVLRLSHNSISHIAEGAFKGLRSLRVLDLDHNEISGTIEDTSGAFSGLDSLSKLTLFGNKIKSVAKRAFSGLEGLEHLNLGGNAIRSVQFDAFVKMKNLKELHISSDSFLCDCQLKWLPPWLIGRMLQAFVTATCAHPESLKGQSIFSVPPESFVCDDFLKPQIITQPETTMAMVGKDIRFTCSAASSSSSPMTFAWKKDNEVLTNADMENFVHVHAQDGEVMEYTTILHLRQVTFGHEGRYQCVITNHFGSTYSHKARLTVNVLPSFTKTPHDITIRTTTMARLECAATGHPNPQIAWQKDGGTDFPAARERRMHVMPDDDVFFITDVKIDDAGVYSCTAQNSAGSISANATLTVLETPSLVVPLEDRVVSVGETVALQCKATGNPPPRITWFKGDRPLSLTERHHLTPDNQLLVVQNVVAEDAGRYTCEMSNTLGTERAHSQLSVLPAAGCRKDGTTVGIFTIAVVSSIVLTSLVWVCIIYQTRKKSEEYSVTNTDETVVPPDVPSYLSSQGTLSDRQETVVRTEGGPQANGHIESNGVCPRDASHFPEPDTHSVACRQPKLCAGSAYHKEPWKAMEKAEGTPGPHKMEHGGRVVCSDCNTEVDCYSRGQAFHPQPVSRDSAQPSAPNGPEPGGSDQEHSPHHQCSRTAAGSCPECQGSLYPSNHDRMLTAVKKKPMASLDGKGDSSWTLARLYHPDSTELQPASSLTSGSPERAEAQYLLVSNGHLPKACDASPESTPLTGQLPGKQRVPLLLAPKS
In the case of B1, the binding result in test [1] is on record as “binds”.

B2: untagged full-length LRIG1 (pIRES competitor) (protein, UniProt Q96JA1 35-1093)
chain: AGPRAPCAAACTCAGDSLDCGGRGLAALPGDLPSWTRSLNLSYNKLSEIDPAGFEDLPNLQEVYLNNNELTAVPSLGAASSHVVSLFLQHNKIRSVEGSQLKAYLSLEVLDLSLNNITEVRNTCFPHGPPIKELNLAGNRIGTLELGAFDGLSRSLLTLRLSKNRITQLPVRAFKLPRLTQLDLNRNRIRLIEGLTFQGLNSLEVLKLQRNNISKLTDGAFWGLSKMHVLHLEYNSLVEVNSGSLYGLTALHQLHLSNNSIARIHRKGWSFCQKLHELVLSFNNLTRLDEESLAELSSLSVLRLSHNSISHIAEGAFKGLRSLRVLDLDHNEISGTIEDTSGAFSGLDSLSKLTLFGNKIKSVAKRAFSGLEGLEHLNLGGNAIRSVQFDAFVKMKNLKELHISSDSFLCDCQLKWLPPWLIGRMLQAFVTATCAHPESLKGQSIFSVPPESFVCDDFLKPQIITQPETTMAMVGKDIRFTCSAASSSSSPMTFAWKKDNEVLTNADMENFVHVHAQDGEVMEYTTILHLRQVTFGHEGRYQCVITNHFGSTYSHKARLTVNVLPSFTKTPHDITIRTTTMARLECAATGHPNPQIAWQKDGGTDFPAARERRMHVMPDDDVFFITDVKIDDAGVYSCTAQNSAGSISANATLTVLETPSLVVPLEDRVVSVGETVALQCKATGNPPPRITWFKGDRPLSLTERHHLTPDNQLLVVQNVVAEDAGRYTCEMSNTLGTERAHSQLSVLPAAGCRKDGTTVGIFTIAVVSSIVLTSLVWVCIIYQTRKKSEEYSVTNTDETVVPPDVPSYLSSQGTLSDRQETVVRTEGGPQANGHIESNGVCPRDASHFPEPDTHSVACRQPKLCAGSAYHKEPWKAMEKAEGTPGPHKMEHGGRVVCSDCNTEVDCYSRGQAFHPQPVSRDSAQPSAPNGPEPGGSDQEHSPHHQCSRTAAGSCPECQGSLYPSNHDRMLTAVKKKPMASLDGKGDSSWTLARLYHPDSTELQPASSLTSGSPERAEAQYLLVSNGHLPKACDASPESTPLTGQLPGKQRVPLLLAPKS
As for B2, the binding entry in test [2] is reported as “binds”.

B3: soluble LRIG1 expressed in the U87-EGFRvIII-sLRIG1 cell line (domain or fragment, UniProt Q96JA1 35-779)
chain: AGPRAPCAAACTCAGDSLDCGGRGLAALPGDLPSWTRSLNLSYNKLSEIDPAGFEDLPNLQEVYLNNNELTAVPSLGAASSHVVSLFLQHNKIRSVEGSQLKAYLSLEVLDLSLNNITEVRNTCFPHGPPIKELNLAGNRIGTLELGAFDGLSRSLLTLRLSKNRITQLPVRAFKLPRLTQLDLNRNRIRLIEGLTFQGLNSLEVLKLQRNNISKLTDGAFWGLSKMHVLHLEYNSLVEVNSGSLYGLTALHQLHLSNNSIARIHRKGWSFCQKLHELVLSFNNLTRLDEESLAELSSLSVLRLSHNSISHIAEGAFKGLRSLRVLDLDHNEISGTIEDTSGAFSGLDSLSKLTLFGNKIKSVAKRAFSGLEGLEHLNLGGNAIRSVQFDAFVKMKNLKELHISSDSFLCDCQLKWLPPWLIGRMLQAFVTATCAHPESLKGQSIFSVPPESFVCDDFLKPQIITQPETTMAMVGKDIRFTCSAASSSSSPMTFAWKKDNEVLTNADMENFVHVHAQDGEVMEYTTILHLRQVTFGHEGRYQCVITNHFGSTYSHKARLTVNVLPSFTKTPHDITIRTTTMARLECAATGHPNPQIAWQKDGGTDFPAARERRMHVMPDDDVFFITDVKIDDAGVYSCTAQNSAGSISANATLTVLETPSLVVPLEDRVVSVGETVALQCKATGNPPPRITWFKGDRPLSLTERHHLTPDNQLLVVQNVVAEDAGRYTCEMSNTLGTERAHSQLS
Regarding B3, the binding entry in test [3] is “binds”.

B4: untagged soluble LRIG1 (pIRES competitor) (domain or fragment, UniProt Q96JA1 35-779)
chain: AGPRAPCAAACTCAGDSLDCGGRGLAALPGDLPSWTRSLNLSYNKLSEIDPAGFEDLPNLQEVYLNNNELTAVPSLGAASSHVVSLFLQHNKIRSVEGSQLKAYLSLEVLDLSLNNITEVRNTCFPHGPPIKELNLAGNRIGTLELGAFDGLSRSLLTLRLSKNRITQLPVRAFKLPRLTQLDLNRNRIRLIEGLTFQGLNSLEVLKLQRNNISKLTDGAFWGLSKMHVLHLEYNSLVEVNSGSLYGLTALHQLHLSNNSIARIHRKGWSFCQKLHELVLSFNNLTRLDEESLAELSSLSVLRLSHNSISHIAEGAFKGLRSLRVLDLDHNEISGTIEDTSGAFSGLDSLSKLTLFGNKIKSVAKRAFSGLEGLEHLNLGGNAIRSVQFDAFVKMKNLKELHISSDSFLCDCQLKWLPPWLIGRMLQAFVTATCAHPESLKGQSIFSVPPESFVCDDFLKPQIITQPETTMAMVGKDIRFTCSAASSSSSPMTFAWKKDNEVLTNADMENFVHVHAQDGEVMEYTTILHLRQVTFGHEGRYQCVITNHFGSTYSHKARLTVNVLPSFTKTPHDITIRTTTMARLECAATGHPNPQIAWQKDGGTDFPAARERRMHVMPDDDVFFITDVKIDDAGVYSCTAQNSAGSISANATLTVLETPSLVVPLEDRVVSVGETVALQCKATGNPPPRITWFKGDRPLSLTERHHLTPDNQLLVVQNVVAEDAGRYTCEMSNTLGTERAHSQLS
In the case of B4, the binding entry in test [2] is listed as “binds”.
